Results reported in PubChem BioAssay AID2685 (National Center for Advancing Translational Sciences (NCATS), 2010).
Some of the results follow. Further columns of the screen follow, without active or inactive calls. Most of these compounds were active or inconclusive in the main read-out, so they are no random draw. Words in brackets tell the shape of the fitted curve; partial curves, single points and poor fits give uncertain potencies.

Test: qHTS Assay for Lipid Storage Modulators in Drosophila S3 Cells;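 on cell number change: cells counted by Cell Tracker Red CMTPX staining in the red channel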
Details: BODIPY lipid droplet fluorescence, 18-24 h; for cell number change: measured here: cell count max response, cells fed with added oleic acid
Method in brief: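 Laser-scanning cytometry quantifies lipid droplet accumulation (500–530 nm total intensity; droplet/cell object ratio) in oleic acid-fed (400 uM added) Drosophila S3 cells treated with a concentration series. 20 uM Triacsin C defined 100% inhibition.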

[1] = measured here: lipid fluorescence (Fed channel) AC50, cells fed with added oleic acid
[2] = measured here: cell number channel AC50, cells fed with added oleic acid

Row | Compound | cell number change | AC50 [1] | AC50 [2]
1 | Cc1nc(-c2ccc(O)c(O)c2)cs1 | 4.78% | 29.1 µM [rising, single point] | 
2 | COc1ccc(OC)c(S(=O)(=O)Nc2ccc3c(c2)C(=O)OC3)c1 | -16.4% |  | 
3 | O=C(COC(=O)C1CC(=O)N(Cc2ccco2)C1)c1ccc(OC(=O)c2ccccc2)cc1 (centres undefined) | -29.2% | 29.1 µM [falling, single point] | 
4 | CC(C)N1C(=S)SC2CS(=O)(=O)C=C21 (centres undefined) | -10.7% | 2.06 µM [falling, partial curve] | 
5 | CC(=O)NC(c1cc(Cl)c2ccccc2c1O)C(C)C (centres undefined) | 7.44% | 0.103 µM [rising, full curve, poor fit] | 
6 | COc1cccc(C(=O)OCC(=O)NCCc2ccccc2)c1OC | -1.98% | 6.51 µM [rising, single point] | 6.51 µM [rising, single point]
7 | Cc1c(Cl)cccc1NC(=O)COC(=O)C12CC3CC(CC(O)(C3)C1)C2 | 2.63% | 0.146 µM [rising, full curve, poor fit] | 
8 | COc1ccc(/C=C(/C(=O)c2cccs2)N2C=CC=CC2=C(C#N)C#N)cc1 | -61.8% | 5.8 µM [falling, full curve] | 6.51 µM [falling, partial curve]
9 | O=C1CCc2cc(S(=O)(=O)Nc3ccccc3Cl)ccc2N1 | 1.75% |  | 
10 | COc1ccc(Cc2nnc(NC(=O)c3ccco3)s2)cc1OC | -31.1% |  | 29.1 µM [falling, single point]
11 | CCN1CCN(c2ncnc3c2nnn3Cc2ccccc2)CC1 | 56.4% | 3.66 µM [rising, full curve, poor fit] | 23.1 µM [rising, partial curve]
12 | O=C(COc1ccc(Cl)cc1)OCc1csc(Nc2ccccc2)n1 | 89.1% | 0.058 µM [falling, full curve, poor fit] | 29.1 µM [rising, single point]
13 | Cc1c(C(=O)NCc2cccnc2)oc2ccc(S(=O)(=O)N3CCC4(CC3)OCCO4)cc12 | 18.2% | 16.4 µM [rising, partial curve] | 
14 | Cc1ccc(NC(=O)c2ccc(Cl)c(N3C(=O)CCC3=O)c2)cc1 | 18.8% | 14.6 µM [rising, partial curve] | 
15 | Cc1ccc2c(c1)N(C(=O)CCC(=O)NCc1ccccc1)CC(C)O2 (centres undefined) | -19% | 29.1 µM [falling, partial curve] | 
16 | COc1ccc(-n2nc3c(c2NC(=O)Cc2cccc(C)c2)CS(=O)C3)cc1 (centres undefined) | -9.5% | 3.66 µM [falling, single point] | 
17 | COc1ccc(-c2cc3ccccc3oc2=O)cc1NC(=O)c1ccc([N+](=O)[O-])o1 | -17.5% | 8.2 µM [falling, partial curve] | 
18 | O=C(CCCC(=O)Nc1ccc(Br)cc1)N/N=C/c1ccccc1 | 29.6% | 22.4 µM [rising, partial curve, poor fit] | 
19 | CCC(=O)Nc1nc2ccccc2n1Cc1ccc(C)cc1 | 0.279% | 1.46 µM [rising, partial curve] | 0.13 µM [rising, full curve]
20 | COc1cccc(C(=O)Oc2ccc(/C=N/Nc3ccc(C(=O)O)cc3)cc2OC)c1 | -8.21% | 4.61 µM [rising, single point] | 

Row | Compound | cell number change | AC50 [1] | AC50 [2]
21 | Cc1ccc(NC(=O)CSc2n[nH]c(-c3cccnc3)n2)c(Br)c1 | 21% | 29.1 µM [rising, single point] | 
22 | O=C1CC(NCc2ccco2)C(=O)N1CCc1ccccc1 (centres undefined) | -12.1% | 1.16 µM [falling, single point] | 
23 | COc1ccc(/C=C(\C#N)C(=O)OCC(=O)Nc2c(C)cccc2C)cc1 | -11.9% | 0.651 µM [falling, partial curve, poor fit] | 
24 | O=C(O)c1ccccc1C(=O)Nc1ccc(Oc2ccccc2)cc1 | 26.2% |  | 1.84 µM [rising, full curve, poor fit]
25 | COc1ccc(CNC(=O)c2oc3ccc(S(=O)(=O)N4CCOCC4)cc3c2C)cc1 | 6.76% | 29.1 µM [falling, single point] | 
26 | O=C1/C(=C\c2cccnc2)SC(=S)N1C1CCS(=O)(=O)C1 (centres undefined) | -8.91% | 3.26 µM [rising, single point] | 
27 | CCOC(=O)N1CCN(c2cc(N3CCOCC3)c(F)cc2[N+](=O)[O-])CC1 | 68.2% | 29.1 µM [rising, partial curve] | 29.1 µM [rising, single point]
28 | COc1ccc2cc(CN(CC3CCCO3)S(=O)(=O)c3ccccc3)c(=O)[nH]c2c1 (centres undefined) | 65.3% | 16.4 µM [rising, partial curve] | 11.6 µM [rising, partial curve]
29 | CN=CC1=C(O)CC(C)(C)CC1=O | -39.5% | 29.1 µM [falling, single point] | 32.6 µM [falling, single point]
30 | CC(OC(=O)/C=C/c1ccco1)C(=O)NC1CCCCC1C (centres undefined) | -12.4% | 1.46 µM [falling, full curve] | 
31 | CC(C)COC(=O)/C(C#N)=C/c1cn(Cc2ccccc2)c2ccccc12 | -27.6% | 18.4 µM [falling, single point] | 
32 | CC1(C)C(=O)OC(c2cccn2-c2ccc([N+](=O)[O-])cc2)C2(CCCCC2)C1=O (centres undefined) | 0.663% | 0.731 µM [falling, single point] | 
33 | O=C(CSc1ccc(-c2ccccn2)nn1)N1CCCc2ccccc21 | 14.5% | 1.16 µM [rising, single point] | 
34 | O=C(O)CCCNc1cc(N2CCC3(CC2)OCCO3)c2noc3c2c1C(=O)c1ccccc1-3 | 17.1% |  | 
35 | Cc1c(OC(C)C(=O)O)ccc2c3c(c(=O)oc12)CCCC3 (centres undefined) | 18% |  | 
36 | CCOC(=O)N1CCN(C(=O)c2ccc(S(=O)(=O)Nc3cccc(C(F)(F)F)c3)cc2)CC1 | 107% |  | 20.6 µM [rising, partial curve]
37 | CCC(C)[C@H](NC(=O)N1CCCCC1)C(=O)OC (some centres undefined) | -41.5% | 1.64 µM [falling, full curve] | 1.3 µM [falling, full curve]
38 | CON(C)S(=O)(=O)NC(=O)C1=C(N2CCCC2)COC1=O | 28.1% | 10.3 µM [rising, single point] | 0.0146 µM [falling, full curve, poor fit]
39 | COc1ccccc1CNc1nc(=S)[nH]c2cc(OC)c(OC)cc12 | 24.8% |  | 
40 | CS(=O)(=O)c1ccc(C(=O)Nc2ccc(-c3nc4ccccc4[nH]3)cc2)cc1 | 37.6% | 16.4 µM [rising, single point] | 20.6 µM [rising, single point]

Entries of single compounds, looked up by structure. Order of values: cell number change	AC50 [1]	AC50 [2]
COc1cccc(C(=O)OCC(=O)NCCc2ccccc2)c1OC in the list: -1.98%	6.51 µM [rising, single point]	6.51 µM [rising, single point]
CCN1CCN(c2ncnc3c2nnn3Cc2ccccc2)CC1 in the list: 56.4%	3.66 µM [rising, full curve, poor fit]	23.1 µM [rising, partial curve]

Further structures

Row | Compound | cell number change | AC50 [1] | AC50 [2]
41 | Cc1cc(NC(=O)Cn2c(=O)n(Cc3ccccc3)c(=O)c3ccccc32)no1 |  | 4.11 µM [falling, full curve, poor fit] | 
42 | Cc1ccc(-c2cc(C(=O)N3CCN(c4ccccc4O)CC3)c3ccccc3n2)o1 | -18.1% | 29.1 µM [rising, single point] | 
43 | CC(C)OC(=O)CSc1nc2cccnc2n1-c1ccc(F)cc1 | -10.4% | 2.91 µM [rising, single point] | 
44 | CCOc1ccccc1NC(=O)N1CCCC(c2nc3c(nnn3Cc3ccc(C)cc3)c(=O)[nH]2)C1 (centres undefined) | -12.6% | 20.6 µM [rising, single point] | 
45 | N=C1/C(=C\c2ccc(OC(=O)c3ccc(F)cc3)cc2)C(=O)N=C2SC(N3CCOCC3)=NN12 | -6.57% | 4.61 µM [rising, full curve] | 
46 | CCOC(=O)[C@H]1[C@H]2COc3ccc(Cl)cc3[C@@H]2N2C(=O)CN(C)C(=O)[C@@]12C | 6.86% |  | 
47 | N#Cc1nc(COc2ccc(Cl)cc2Cl)oc1N1CCOCC1 | -21.1% | 0.326 µM [rising, partial curve, poor fit] | 
48 | Cc1cccc(N(C(=O)c2snc(C(N)=O)c2N)C(C(=O)NCC2CCCO2)c2ccc3ncccc3c2)c1 (centres undefined) | 3.85% |  | 
49 | CCc1ccccc1NC(=O)CNC(=O)CCNC(=O)Nc1ccccc1 | 9.98% | 0.231 µM [rising, full curve, poor fit] | 
50 | CCCS(=O)(=O)N1CCN(CC2CC=CCC2)CC1 (centres undefined) | -52.3% |  | 0.0517 µM [falling, full curve]
51 | COc1ccc(Cl)cc1NC(=O)COc1ccc(S(=O)(=O)N2CCOCC2)cc1C | -9.52% | 29.1 µM [rising, single point] | 
52 | COc1ccc(C(=O)NCc2nnc(SCC(=O)Nc3ccccc3OC)n2C)cc1 | 103% |  | 20.6 µM [rising, single point]
53 | Cc1cc(O)c(C2(C(F)(F)F)NCCNC2=O)cc1C (centres undefined) | -192% |  | 20.6 µM [falling, partial curve]
54 | Cc1c(-c2ccccc2)oc2c(C(=O)OCC(=O)Nc3ccc(F)cc3)cccc2c1=O | -2.09% | 1.64 µM [rising, full curve] | 
55 | COc1cc(C(=O)NCCNc2nc3c(C)c(C)ccc3cc2C#N)cc(OC)c1OC | 0.587% | 4.11 µM [rising, full curve] | 
56 | CC1CCN(c2cc(N3CCOCC3)c([N+](=O)[O-])cc2F)CC1 | -20.4% | 6.51 µM [falling, single point] | 
57 | Cn1c(=O)c2c(SCC(=O)N3CCOCC3)nc(-c3ccccc3F)nc2n(C)c1=O | 10.6% | 6.51 µM [falling, single point] | 
58 | CC(C)NC(=S)Nc1ccc2[nH]c(=O)[nH]c2c1 | 16.2% | 32.6 µM [rising, partial curve] | 

Retrieved by structure from above (2):
Row | Compound | cell number change | AC50 [1] | AC50 [2]
50 | CCCS(=O)(=O)N1CCN(CC2CC=CCC2)CC1 (centres undefined) | -52.3% |  | 0.0517 µM [falling, full curve]
56 | CC1CCN(c2cc(N3CCOCC3)c([N+](=O)[O-])cc2F)CC1 | -20.4% | 6.51 µM [falling, single point] | 
